The other results are listed elsewhere or left out.
Tests used:
Assay in all cases: log2 fold change, soluble protein after heating vs DMSO (PISA); higher = thermal stabilisation; K562 cells, 10 uM, 30 min; active = over 0.2 and 3.5 SD of the protein, either way, in both replicates (recomputed)
[1] = compound: CC[C@@H]1C(=O)N(C)c2cnc(Nc3ccc(C(=O)NC4CCN(C)CC4)cc3OC)nc2N1C1CCCC1
In short: (§1)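 Values are thermal stability changes relative to control samples and are taken from duplicates. They are stated as log2 fold changes. Before quantification by TMTpro 16plex LC-MS/MS with equalised channel sums, K562 cells at 2×10^6 cells/mL were treated with 10 μM compound for 30 min, heated in aliquots for 3 min across 48°C-58°C, pooled, extracted in PBS with 0.5% NP-40 at 4°C, and centrifuged at 21,000xg for 90 min to give the soluble supernatant.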

Protein sequences, listed by entry. Tags and fused reporters are not part of them. Lines headed by an entry give the natural chain unless they say otherwise; changes in a name come on top.
UniProt Q92990: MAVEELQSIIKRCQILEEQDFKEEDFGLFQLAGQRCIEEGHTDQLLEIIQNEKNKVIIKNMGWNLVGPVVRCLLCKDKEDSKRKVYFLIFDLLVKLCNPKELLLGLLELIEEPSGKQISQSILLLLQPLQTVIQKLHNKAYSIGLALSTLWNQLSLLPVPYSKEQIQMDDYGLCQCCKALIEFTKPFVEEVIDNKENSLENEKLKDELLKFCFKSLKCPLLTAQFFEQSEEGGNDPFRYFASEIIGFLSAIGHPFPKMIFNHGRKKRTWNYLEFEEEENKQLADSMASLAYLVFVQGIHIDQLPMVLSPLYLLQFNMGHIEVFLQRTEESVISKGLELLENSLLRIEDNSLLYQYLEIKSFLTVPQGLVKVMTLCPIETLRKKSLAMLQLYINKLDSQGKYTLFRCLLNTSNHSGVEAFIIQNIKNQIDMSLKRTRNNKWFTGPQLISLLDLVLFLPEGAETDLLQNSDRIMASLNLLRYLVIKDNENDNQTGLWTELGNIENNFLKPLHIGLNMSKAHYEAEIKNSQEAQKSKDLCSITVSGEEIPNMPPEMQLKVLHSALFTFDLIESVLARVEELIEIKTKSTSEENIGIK
UniProt Q13439: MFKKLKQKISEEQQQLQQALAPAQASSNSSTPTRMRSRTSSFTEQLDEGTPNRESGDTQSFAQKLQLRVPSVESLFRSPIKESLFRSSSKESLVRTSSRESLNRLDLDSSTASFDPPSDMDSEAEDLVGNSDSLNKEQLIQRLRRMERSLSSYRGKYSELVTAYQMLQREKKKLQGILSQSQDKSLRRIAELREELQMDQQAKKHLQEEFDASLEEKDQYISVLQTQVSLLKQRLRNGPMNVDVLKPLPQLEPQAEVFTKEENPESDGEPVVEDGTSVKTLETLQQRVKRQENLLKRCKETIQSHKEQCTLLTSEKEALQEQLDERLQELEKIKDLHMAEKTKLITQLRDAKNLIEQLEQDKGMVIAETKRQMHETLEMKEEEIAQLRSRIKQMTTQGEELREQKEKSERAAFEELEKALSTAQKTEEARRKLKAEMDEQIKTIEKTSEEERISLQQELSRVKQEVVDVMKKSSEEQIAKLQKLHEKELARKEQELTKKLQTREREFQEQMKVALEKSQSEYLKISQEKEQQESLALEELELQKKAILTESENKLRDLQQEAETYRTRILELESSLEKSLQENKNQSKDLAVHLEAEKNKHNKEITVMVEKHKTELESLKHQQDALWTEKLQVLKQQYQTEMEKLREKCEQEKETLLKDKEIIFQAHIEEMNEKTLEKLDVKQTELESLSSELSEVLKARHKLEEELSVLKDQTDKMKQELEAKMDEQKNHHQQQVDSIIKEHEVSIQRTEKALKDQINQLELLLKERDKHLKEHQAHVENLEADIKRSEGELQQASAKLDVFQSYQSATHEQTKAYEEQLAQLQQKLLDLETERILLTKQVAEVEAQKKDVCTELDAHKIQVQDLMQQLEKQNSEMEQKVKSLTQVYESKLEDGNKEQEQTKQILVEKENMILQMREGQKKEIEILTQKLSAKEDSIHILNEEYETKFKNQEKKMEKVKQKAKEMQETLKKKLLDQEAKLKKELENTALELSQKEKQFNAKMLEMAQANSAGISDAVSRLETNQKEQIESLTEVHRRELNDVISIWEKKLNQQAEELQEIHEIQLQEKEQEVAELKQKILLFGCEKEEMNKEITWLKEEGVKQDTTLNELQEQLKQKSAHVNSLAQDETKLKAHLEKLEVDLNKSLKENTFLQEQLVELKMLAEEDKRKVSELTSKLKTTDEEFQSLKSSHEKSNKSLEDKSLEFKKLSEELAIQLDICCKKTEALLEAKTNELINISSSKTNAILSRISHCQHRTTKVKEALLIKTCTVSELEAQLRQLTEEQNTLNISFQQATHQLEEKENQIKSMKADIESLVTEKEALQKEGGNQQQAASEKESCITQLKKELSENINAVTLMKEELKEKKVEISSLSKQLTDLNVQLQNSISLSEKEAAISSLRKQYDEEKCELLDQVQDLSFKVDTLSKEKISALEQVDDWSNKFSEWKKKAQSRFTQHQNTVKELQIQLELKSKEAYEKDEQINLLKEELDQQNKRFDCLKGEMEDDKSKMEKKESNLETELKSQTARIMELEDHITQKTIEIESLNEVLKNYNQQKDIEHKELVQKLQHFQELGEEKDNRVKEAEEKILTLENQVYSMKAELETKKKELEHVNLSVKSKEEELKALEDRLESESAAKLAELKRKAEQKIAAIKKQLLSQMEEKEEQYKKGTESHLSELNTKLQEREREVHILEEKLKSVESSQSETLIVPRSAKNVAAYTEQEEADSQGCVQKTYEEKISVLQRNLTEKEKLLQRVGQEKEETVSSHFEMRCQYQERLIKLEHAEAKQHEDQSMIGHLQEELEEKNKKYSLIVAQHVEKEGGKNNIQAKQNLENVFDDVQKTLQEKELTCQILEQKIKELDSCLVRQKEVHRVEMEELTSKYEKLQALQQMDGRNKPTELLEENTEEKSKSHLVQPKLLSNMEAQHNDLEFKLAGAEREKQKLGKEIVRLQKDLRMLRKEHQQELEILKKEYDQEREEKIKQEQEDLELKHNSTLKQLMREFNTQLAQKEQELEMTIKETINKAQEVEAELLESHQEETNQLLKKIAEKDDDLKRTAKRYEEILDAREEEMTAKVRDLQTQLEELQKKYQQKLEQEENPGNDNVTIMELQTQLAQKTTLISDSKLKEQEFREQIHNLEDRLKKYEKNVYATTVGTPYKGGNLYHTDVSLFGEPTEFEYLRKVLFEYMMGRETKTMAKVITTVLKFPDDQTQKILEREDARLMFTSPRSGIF
UniProt Q9HC38: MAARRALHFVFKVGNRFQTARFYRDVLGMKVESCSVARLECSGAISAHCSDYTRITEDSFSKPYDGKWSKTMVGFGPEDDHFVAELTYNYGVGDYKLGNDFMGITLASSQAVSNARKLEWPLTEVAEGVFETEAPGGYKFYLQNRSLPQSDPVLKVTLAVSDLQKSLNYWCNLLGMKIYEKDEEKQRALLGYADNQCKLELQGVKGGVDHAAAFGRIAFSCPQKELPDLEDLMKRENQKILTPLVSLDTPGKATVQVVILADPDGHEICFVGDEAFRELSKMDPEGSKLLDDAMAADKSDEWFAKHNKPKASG
UniProt Q12849: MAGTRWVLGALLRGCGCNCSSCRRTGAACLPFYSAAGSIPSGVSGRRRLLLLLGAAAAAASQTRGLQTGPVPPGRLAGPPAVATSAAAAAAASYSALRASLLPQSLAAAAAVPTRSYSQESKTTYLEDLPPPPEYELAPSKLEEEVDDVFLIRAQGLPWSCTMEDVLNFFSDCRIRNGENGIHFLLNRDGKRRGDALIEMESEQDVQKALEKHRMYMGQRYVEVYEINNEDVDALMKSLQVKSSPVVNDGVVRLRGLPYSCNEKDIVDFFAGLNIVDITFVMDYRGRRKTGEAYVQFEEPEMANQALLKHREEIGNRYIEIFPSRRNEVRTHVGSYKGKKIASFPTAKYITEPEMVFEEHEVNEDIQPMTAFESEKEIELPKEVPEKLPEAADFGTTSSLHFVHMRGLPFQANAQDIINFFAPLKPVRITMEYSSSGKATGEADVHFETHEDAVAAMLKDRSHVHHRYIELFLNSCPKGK
UniProt Q7Z2K8: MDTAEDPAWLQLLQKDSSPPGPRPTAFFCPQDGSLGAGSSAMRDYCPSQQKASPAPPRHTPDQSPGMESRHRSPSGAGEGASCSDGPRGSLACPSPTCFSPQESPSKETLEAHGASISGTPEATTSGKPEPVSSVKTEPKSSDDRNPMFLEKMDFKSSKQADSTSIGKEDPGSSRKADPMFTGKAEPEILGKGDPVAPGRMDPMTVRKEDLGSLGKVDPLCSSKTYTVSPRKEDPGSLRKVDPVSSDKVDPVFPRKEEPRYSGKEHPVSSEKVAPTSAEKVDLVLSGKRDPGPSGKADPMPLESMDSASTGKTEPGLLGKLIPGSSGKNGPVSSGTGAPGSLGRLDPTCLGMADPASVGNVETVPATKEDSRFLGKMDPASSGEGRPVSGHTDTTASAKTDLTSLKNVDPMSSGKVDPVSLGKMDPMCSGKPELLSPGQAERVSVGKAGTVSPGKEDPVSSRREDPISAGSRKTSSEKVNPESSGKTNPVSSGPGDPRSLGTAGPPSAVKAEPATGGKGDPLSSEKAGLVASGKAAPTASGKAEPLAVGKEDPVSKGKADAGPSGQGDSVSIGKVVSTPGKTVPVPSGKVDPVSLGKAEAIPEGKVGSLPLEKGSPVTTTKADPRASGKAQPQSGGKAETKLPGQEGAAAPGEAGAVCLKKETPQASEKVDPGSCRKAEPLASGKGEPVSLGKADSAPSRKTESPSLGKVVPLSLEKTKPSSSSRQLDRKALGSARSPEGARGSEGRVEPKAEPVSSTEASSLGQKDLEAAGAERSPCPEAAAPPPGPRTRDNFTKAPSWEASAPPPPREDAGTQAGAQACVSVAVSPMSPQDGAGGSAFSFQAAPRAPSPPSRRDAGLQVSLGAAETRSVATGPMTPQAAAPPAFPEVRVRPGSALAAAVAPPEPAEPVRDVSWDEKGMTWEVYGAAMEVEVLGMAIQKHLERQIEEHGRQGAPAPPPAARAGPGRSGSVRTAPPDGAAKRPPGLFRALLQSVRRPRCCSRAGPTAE
UniProt P62993, whole entry, looked up: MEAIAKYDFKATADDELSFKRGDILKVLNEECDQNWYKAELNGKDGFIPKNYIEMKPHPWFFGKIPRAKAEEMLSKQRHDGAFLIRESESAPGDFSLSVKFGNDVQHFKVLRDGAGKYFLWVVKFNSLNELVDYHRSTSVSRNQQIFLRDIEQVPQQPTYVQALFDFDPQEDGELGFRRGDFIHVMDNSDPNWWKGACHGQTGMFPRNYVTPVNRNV
UniProt Q9Y223: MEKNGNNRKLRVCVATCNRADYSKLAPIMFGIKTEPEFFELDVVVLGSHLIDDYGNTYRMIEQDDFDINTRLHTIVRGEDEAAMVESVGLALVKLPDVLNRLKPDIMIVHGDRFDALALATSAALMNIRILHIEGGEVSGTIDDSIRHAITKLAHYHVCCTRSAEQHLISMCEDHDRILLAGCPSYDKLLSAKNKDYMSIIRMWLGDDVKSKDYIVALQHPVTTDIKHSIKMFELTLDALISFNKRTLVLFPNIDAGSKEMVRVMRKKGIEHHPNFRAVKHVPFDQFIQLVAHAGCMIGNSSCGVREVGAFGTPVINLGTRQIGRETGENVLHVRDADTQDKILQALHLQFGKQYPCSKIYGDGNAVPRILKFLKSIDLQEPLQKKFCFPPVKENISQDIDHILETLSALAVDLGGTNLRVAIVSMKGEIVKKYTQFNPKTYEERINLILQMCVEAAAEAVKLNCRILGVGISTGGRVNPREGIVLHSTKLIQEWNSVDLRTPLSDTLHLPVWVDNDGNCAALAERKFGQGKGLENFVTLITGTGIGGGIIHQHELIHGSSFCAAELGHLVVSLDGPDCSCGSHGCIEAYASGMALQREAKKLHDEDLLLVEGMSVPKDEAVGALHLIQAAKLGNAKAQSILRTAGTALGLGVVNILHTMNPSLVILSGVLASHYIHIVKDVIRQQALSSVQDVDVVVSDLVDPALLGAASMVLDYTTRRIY
UniProt O43292: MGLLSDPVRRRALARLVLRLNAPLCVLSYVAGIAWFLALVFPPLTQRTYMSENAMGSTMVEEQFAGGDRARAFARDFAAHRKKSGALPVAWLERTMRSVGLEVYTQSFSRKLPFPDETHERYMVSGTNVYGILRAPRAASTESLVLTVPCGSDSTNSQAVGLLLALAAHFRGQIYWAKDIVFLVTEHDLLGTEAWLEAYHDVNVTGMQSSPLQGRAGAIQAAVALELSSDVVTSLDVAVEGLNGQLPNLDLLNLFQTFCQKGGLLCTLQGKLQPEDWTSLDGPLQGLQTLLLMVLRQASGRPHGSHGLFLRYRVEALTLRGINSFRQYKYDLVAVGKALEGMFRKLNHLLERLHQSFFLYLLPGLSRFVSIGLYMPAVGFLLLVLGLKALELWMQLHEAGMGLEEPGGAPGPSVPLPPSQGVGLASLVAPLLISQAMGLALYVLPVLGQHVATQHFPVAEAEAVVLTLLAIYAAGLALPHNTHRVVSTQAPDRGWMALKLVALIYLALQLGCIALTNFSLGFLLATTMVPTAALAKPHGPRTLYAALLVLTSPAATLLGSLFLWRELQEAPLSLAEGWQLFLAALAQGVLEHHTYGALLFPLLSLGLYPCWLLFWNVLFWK
UniProt O75791: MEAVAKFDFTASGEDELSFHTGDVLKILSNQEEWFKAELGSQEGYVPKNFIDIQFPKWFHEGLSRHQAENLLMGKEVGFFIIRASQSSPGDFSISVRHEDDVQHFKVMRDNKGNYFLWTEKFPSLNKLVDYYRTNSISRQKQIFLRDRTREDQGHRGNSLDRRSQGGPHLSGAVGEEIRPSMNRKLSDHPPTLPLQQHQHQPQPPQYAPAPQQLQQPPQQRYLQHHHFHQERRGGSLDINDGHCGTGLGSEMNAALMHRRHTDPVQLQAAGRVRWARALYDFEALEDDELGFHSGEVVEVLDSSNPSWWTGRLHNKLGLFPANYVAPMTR

volasertib = compound: CC[C@@H]1C(=O)N(C)c2cnc(Nc3ccc(C(=O)N[C@H]4CC[C@H](N5CCN(CC6CC6)CC5)CC4)cc3OC)nc2N1C(C)C [volasertib]
In short: as §1

[2] = compound: CC[C@H](C)N1C=C(C2=C(C=C(C=C21)C3=CN=C(C=C3)N4CCNCC4)C(=O)NCC5=C(C=C(NC5=O)C)C)C
In short: as §1

epoxomicin = compound: CC[C@H](C)[C@@H](C(=O)N[C@@H]([C@@H](C)O)C(=O)N[C@@H](CC(C)C)C(=O)[C@]1(CO1)C)NC(=O)[C@H]([C@@H](C)CC)N(C)C(=O)C [epoxomicin]
In short: as §1

[3] = compound: CCn1c(C(=O)N(C2CC2)C2CC2)cc2c3c(ncn3C)c(Nc3cc(C)n(C)n3)nc21
In short: as §1

[4] = compound: CCn1cc(-c2ccnc3[nH]c(-c4cccc(CN(C)C)c4)cc23)c(-c2ccc(NC(=O)N(C)C)cc2)n1
In short: as §1

[5] = compound: CN(C)CC(=O)Nc1ccc2[nH]c(=O)c3ccccc3c2c1
In short: as §1

rosiglitazone = compound: CN(CCOC1=CC=C(C=C1)C[C@H]2C(=O)NC(=O)S2)C3=CC=CC=N3 (racemic) [rosiglitazone]
In short: as §1

[6] = compound: CN1C2=C(C3=C1C(=O)N(N=C3)CC4=CC(=CC=C4)N)SC(=C2)S(=O)C
In short: as §1

[7] = compound: CN1CCC(CNc2ccc3ncc(-c4cccc(OC(F)(F)F)c4)n3n2)CC1
In short: as §1

Measured: log2 fold change

GLMN (UniProt Q92990)
inactive: [1] -0.054 | volasertib -0.08 | [2] 0.024 | epoxomicin 0.023 | [3] 0.004 | [4] -0.007 | [5] 0.004 | rosiglitazone 0.032 | [6] -0.043 | [7] -0.125

GOLGA4 isoform 5 (UniProt Q13439)
inactive: [1] -0.055 | volasertib -0.052 | [2] 0.008 | epoxomicin 0.035 | [3] -0.104 | [4] 0.056 | [5] -0.027 | rosiglitazone 0.068 | [6] 0.102 | [7] -0.091

GMPR2 isoform 2 (UniProt Q9P2T1)
inactive: [1] 0.022 | volasertib 0.082 | [2] -0.044 | epoxomicin 0.012 | [3] -0.007 | [4] -0.044 | [5] -0.051 | rosiglitazone -0.013 | [6] -0.041 | [7] -0.049

GOT2 (UniProt P00505)
inactive: [1] 0.004 | volasertib 0.053 | [2] -0.014 | epoxomicin -0.003 | [3] 0.024 | [4] -0.001 | [5] -0.008 | rosiglitazone -0.035 | [6] -0.027 | [7] -0.002

GORASP2 isoform 3 (UniProt Q9H8Y8)
inactive: [1] 0.043 | volasertib -0.131 | [2] 0.07 | epoxomicin 0.008 | [3] -0.059 | [4] 0 | [5] 0.045 | rosiglitazone 0.069 | [6] 0.017 | [7] 0.133

GNAQ (UniProt P50148)
inactive: [1] 0.016 | volasertib 0.086 | [2] -0.017 | epoxomicin -0.011 | [3] 0.031 | [4] -0.047 | [5] 0.051 | rosiglitazone 0.028 | [6] 0.053 | [7] -0.036

GMFG (UniProt O60234)
inactive: [1] -0.111 | volasertib -0.215 | [2] 0.028 | epoxomicin 0.033 | [3] 0.009 | [4] -0.025 | [5] 0.054 | rosiglitazone 0.014 | [6] 0.004 | [7] -0.072

GLOD4 isoform 2 (UniProt Q9HC38)
inactive: [1] -0.088 | volasertib -0.05 | [2] 0.082 | epoxomicin 0.019 | [3] -0.015 | [4] -0.075 | [5] 0.019 | rosiglitazone 0.065 | [6] -0.093 | [7] -0.132

GRPEL1 (UniProt Q9HAV7)
inactive: [1] -0.001 | volasertib -0.025 | [2] 0.027 | epoxomicin 0.005 | [3] 0.014 | [4] -0.016 | [5] 0 | rosiglitazone 0.033 | [6] -0.083 | [7] -0.021

GLG1 isoform 2 (UniProt Q92896)
inactive: [1] 0.014 | volasertib -0.071 | [2] -0.039 | epoxomicin 0.04 | [3] -0.007 | [4] -0.01 | [5] -0.033 | rosiglitazone -0.003 | [6] -0.037 | [7] 0.042

GRSF1 (UniProt Q12849)
inactive: [1] -0.031 | volasertib -0.233 | [2] 0.046 | epoxomicin 0.143 | [3] 0.043 | [4] 0.138 | [5] 0.008 | rosiglitazone -0.037 | [6] 0.262 | [7] -0.266

GMPS (UniProt P49915)
inactive: [1] 0.033 | volasertib 0.071 | [2] 0.037 | epoxomicin 0.04 | [3] 0.037 | [4] -0.109 | [5] 0.028 | rosiglitazone 0.066 | [6] -0.082 | [7] -0.169

GPRIN1 (UniProt Q7Z2K8)
inactive: [1] 0.011 | volasertib 0.054 | [2] 0.002 | epoxomicin 0.015 | [3] 0.003 | [4] -0.025 | [5] -0.034 | rosiglitazone -0.009 | [6] -0.064 | [7] 0.108

GPBP1 isoform 2 (UniProt Q86WP2)
inactive: [1] 0.001 | volasertib 0.078 | [2] 0.029 | epoxomicin 0.048 | [3] 0.028 | [4] 0.001 | [5] -0.045 | rosiglitazone 0.028 | [6] -0.007 | [7] -0.028

GNPNAT1 (UniProt Q96EK6)
inactive: [1] 0.051 | volasertib 0.084 | [2] -0.042 | epoxomicin 0.029 | [3] -0.013 | [4] 0.022 | [5] 0.021 | rosiglitazone -0.008 | [6] -0.04 | [7] -0.121

GRB2 (UniProt P62993)
inactive: [1] -0.033 | volasertib 0.034 | [2] 0.025 | epoxomicin 0.03 | [3] 0.006 | [4] -0.075 | [5] -0.027 | rosiglitazone 0.05 | [6] -0.076 | [7] -0.051

Quoted at random: two entries already listed.
GMPS (UniProt P49915)
inactive: [1] 0.033 | volasertib 0.071 | [2] 0.037 | epoxomicin 0.04 | [3] 0.037 | [4] -0.109 | [5] 0.028 | rosiglitazone 0.066 | [6] -0.082 | [7] -0.169

GPRIN1 (UniProt Q7Z2K8)
inactive: [1] 0.011 | volasertib 0.054 | [2] 0.002 | epoxomicin 0.015 | [3] 0.003 | [4] -0.025 | [5] -0.034 | rosiglitazone -0.009 | [6] -0.064 | [7] 0.108

Further entries:

GPR89A (UniProt B7ZAQ6)
inactive: [1] -0.045 | volasertib -0.07 | [2] -0.01 | epoxomicin 0.08 | [3] -0.01 | [4] 0.048 | [5] 0.012 | rosiglitazone -0.004 | [6] -0.056 | [7] -0.027

GRHPR (UniProt Q9UBQ7)
inactive: [1] 0.034 | volasertib 0.039 | [2] 0.006 | epoxomicin 0.009 | [3] 0.014 | [4] -0.088 | [5] 0.005 | rosiglitazone -0.006 | [6] -0.099 | [7] -0.013

GNE isoform 2 (UniProt Q9Y223)
inactive: [1] 0.117 | volasertib 0.184 | [2] -0.035 | epoxomicin 0.016 | [3] -0.027 | [4] -0.165 | [5] 0.015 | rosiglitazone 0.027 | [6] -0.062 | [7] 0.014

GOLT1B (UniProt Q9Y3E0)
inactive: [1] -0.003 | volasertib 0.023 | [2] -0.012 | epoxomicin -0.048 | [3] -0.005 | [4] 0.09 | [5] 0.093 | rosiglitazone 0.009 | [6] -0.032 | [7] 0.032

GPAA1 (UniProt O43292)
inactive: [1] 0.012 | volasertib -0.1 | [2] 0.024 | epoxomicin 0.016 | [3] 0.091 | [4] -0.075 | [5] 0 | rosiglitazone -0.025 | [6] -0.009 | [7] 0.079

GRAP2 (UniProt O75791)
inactive: [1] -0.127 | volasertib -0.267 | [2] -0.022 | epoxomicin 0.042 | [3] 0.023 | [4] -0.061 | [5] 0.138 | rosiglitazone -0.059 | [6] -0.016 | [7] -0.121

GIPC1 (UniProt O14908)
inactive: [1] 0.037 | volasertib -0.192 | [2] 0.055 | epoxomicin 0.082 | [3] -0.014 | [4] -0.019 | [5] 0.069 | rosiglitazone 0.011 | [6] -0.037 | [7] -0.029

GNA12 (UniProt Q03113)
inactive: [1] 0.148 | volasertib 0.104 | [2] -0.318 | epoxomicin -0.091 | [3] -0.095 | [4] 0.255 | [5] -0.077 | rosiglitazone 0.05 | [6] 0.052 | [7] -0.035

GNA11 (UniProt P29992)
inactive: [1] 0.044 | volasertib -0.011 | [2] 0.013 | epoxomicin 0.009 | [3] -0.011 | [4] -0.047 | [5] 0.074 | rosiglitazone 0.012 | [6] -0.043 | [7] 0.15

GRWD1 (UniProt Q9BQ67)
inactive: [1] 0.181 | volasertib 0.247 | [2] -0.035 | epoxomicin -0.202 | [3] 0.087 | [4] -0.036 | [5] -0.099 | rosiglitazone -0.113 | [6] 0.357 | [7] 0.216

GNB1L (UniProt Q9BYB4)
inactive: [1] -0.042 | volasertib 0.005 | [2] -0.029 | epoxomicin 0.057 | [3] -0.033 | [4] -0.014 | [5] -0.043 | rosiglitazone -0.005 | [6] -0.056 | [7] -0.005

GPI (UniProt P06744)
inactive: [1] -0.022 | volasertib 0.032 | [2] 0.001 | epoxomicin 0.012 | [3] 0.013 | [4] -0.015 | [5] -0.01 | rosiglitazone 0.022 | [6] -0.091 | [7] -0.005

GK (UniProt P32189)
inactive: [1] 0.047 | volasertib 0.07 | [2] -0.03 | epoxomicin -0.023 | [3] 0.006 | [4] 0.007 | [5] -0.04 | rosiglitazone -0.015 | [6] -0.009 | [7] 0.099

GNAI2 isoform 4 (UniProt P04899)
inactive: [1] 0.146 | volasertib 0.173 | [2] 0.017 | epoxomicin 0.006 | [3] 0.035 | [4] 0.037 | [5] -0.04 | rosiglitazone -0.039 | [6] -0.069 | [7] 0.153

Reference: the supplement of paper PMC10849652
